Broadly, the Ki is the equilibrium dissociation constant of an inhibitor or competing ligand from its target. Read a high Ki as lower affinity.

Each structure is given as a SMILES string.

The nature of test [1]: Inhibition of codeine glucuronidation by human UGT enzymes from liver microsomes. Further details: species or system Microsome. A general note: Microsomes from liver hold many membrane-bound enzymes, among them those of drug oxidation.
The nature of test [2]: Inhibition of AZT glucuronidation by human UGT enzymes from liver microsomes. Further details: species or system Microsome.

As for `CN1CC[C@]23c4c5ccc(O)c4O[C@H]2[C@@H](O)C=C[C@H]3[C@H]1C5` [MORPHINE], the Ki stood at 3600 µM in test [1] and 900 µM in test [2].

For the origin of these results see ChEMBL document CHEMBL1908105, “UDP-glucuronosyltransferases and clinical drug-drug interactions” (Pharmacol Ther, 2005).
